Laboratory results reported in the supplement of paper PMC12595434, “Development of retinoid nuclear receptor pathway antagonists through targeting aldehyde dehydrogenase 1A3” (iScience, 2025).
Some of the results follow. Single values of this set are uncertain.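 Tm was set to 64 °C where no melting was found, and many curves are irregular.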

Amino acid sequences for entries named in this document (tags omitted). A change or cut given only in a name is not applied to a line headed by its entry.
UniProt O95989: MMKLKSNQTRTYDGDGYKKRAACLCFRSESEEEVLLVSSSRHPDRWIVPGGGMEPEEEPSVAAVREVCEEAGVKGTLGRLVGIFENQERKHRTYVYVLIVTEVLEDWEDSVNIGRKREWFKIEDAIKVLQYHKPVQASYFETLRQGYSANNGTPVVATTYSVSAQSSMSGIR
UniProt O94822: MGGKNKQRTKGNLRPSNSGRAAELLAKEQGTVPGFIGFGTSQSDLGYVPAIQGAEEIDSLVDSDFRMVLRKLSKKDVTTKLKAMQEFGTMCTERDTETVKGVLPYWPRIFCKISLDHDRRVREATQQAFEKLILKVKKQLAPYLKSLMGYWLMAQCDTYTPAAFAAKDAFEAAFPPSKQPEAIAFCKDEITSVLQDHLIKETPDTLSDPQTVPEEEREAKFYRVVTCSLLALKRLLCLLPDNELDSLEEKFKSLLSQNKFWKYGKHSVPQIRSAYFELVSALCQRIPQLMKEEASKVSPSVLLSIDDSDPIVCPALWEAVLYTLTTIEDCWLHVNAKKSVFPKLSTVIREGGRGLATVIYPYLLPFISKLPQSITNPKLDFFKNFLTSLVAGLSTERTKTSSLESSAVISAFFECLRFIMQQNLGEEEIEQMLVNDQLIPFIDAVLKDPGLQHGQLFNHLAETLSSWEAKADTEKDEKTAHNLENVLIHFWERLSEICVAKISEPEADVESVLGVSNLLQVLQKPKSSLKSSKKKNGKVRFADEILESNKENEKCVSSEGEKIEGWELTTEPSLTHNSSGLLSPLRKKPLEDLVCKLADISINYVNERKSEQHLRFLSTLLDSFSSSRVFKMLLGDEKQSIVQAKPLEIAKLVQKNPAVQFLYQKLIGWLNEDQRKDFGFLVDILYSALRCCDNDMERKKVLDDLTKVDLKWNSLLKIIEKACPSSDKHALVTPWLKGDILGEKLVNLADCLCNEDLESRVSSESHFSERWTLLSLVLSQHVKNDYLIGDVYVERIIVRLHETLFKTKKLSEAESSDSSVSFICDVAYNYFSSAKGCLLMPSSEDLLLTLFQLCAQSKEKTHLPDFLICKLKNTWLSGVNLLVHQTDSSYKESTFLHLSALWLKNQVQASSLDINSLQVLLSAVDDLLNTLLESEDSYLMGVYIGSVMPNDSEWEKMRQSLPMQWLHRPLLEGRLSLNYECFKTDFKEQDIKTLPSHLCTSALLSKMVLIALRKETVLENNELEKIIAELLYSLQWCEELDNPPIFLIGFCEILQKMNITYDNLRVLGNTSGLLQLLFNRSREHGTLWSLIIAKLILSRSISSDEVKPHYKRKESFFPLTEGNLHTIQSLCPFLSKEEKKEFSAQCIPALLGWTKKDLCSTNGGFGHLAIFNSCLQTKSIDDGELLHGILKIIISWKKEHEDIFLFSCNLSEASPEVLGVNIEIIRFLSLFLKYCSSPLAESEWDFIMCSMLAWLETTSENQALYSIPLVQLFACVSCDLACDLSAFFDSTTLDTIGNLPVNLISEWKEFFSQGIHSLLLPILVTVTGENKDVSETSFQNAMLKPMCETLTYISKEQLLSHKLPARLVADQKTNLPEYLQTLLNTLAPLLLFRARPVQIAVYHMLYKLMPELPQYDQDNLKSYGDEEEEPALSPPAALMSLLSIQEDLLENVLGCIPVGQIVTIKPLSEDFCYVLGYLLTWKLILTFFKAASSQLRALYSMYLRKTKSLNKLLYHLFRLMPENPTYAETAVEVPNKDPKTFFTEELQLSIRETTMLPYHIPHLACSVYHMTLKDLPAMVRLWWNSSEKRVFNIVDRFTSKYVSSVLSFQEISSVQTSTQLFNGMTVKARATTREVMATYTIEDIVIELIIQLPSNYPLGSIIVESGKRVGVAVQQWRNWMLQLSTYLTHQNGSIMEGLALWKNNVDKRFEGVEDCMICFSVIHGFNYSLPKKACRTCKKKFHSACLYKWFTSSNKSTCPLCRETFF
UniProt O75925, whole entry: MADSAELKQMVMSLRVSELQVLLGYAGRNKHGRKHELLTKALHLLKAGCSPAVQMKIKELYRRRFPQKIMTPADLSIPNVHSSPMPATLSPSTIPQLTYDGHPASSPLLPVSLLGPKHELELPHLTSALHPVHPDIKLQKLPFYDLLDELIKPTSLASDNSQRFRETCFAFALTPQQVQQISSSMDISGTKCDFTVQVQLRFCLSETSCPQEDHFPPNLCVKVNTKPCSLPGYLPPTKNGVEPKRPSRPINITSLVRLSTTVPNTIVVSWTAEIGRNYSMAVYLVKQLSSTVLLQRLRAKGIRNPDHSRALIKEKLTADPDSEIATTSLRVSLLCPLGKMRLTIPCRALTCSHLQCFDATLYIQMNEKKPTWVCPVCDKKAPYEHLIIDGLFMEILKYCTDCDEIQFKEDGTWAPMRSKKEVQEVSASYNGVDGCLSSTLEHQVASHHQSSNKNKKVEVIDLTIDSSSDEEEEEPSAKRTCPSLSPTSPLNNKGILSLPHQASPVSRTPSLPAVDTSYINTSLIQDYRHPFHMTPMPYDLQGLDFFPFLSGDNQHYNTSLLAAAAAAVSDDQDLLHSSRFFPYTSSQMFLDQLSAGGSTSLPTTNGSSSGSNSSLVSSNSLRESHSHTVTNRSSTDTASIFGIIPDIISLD
UniProt O95865: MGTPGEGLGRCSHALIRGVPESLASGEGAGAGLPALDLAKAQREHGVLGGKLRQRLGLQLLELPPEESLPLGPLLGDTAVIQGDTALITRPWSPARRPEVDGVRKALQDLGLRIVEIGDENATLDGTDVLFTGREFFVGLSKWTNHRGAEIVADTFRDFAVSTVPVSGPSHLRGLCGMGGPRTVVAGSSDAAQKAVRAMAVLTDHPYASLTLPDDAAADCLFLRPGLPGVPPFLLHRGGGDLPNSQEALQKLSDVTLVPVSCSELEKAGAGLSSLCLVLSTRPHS
UniProt P04035: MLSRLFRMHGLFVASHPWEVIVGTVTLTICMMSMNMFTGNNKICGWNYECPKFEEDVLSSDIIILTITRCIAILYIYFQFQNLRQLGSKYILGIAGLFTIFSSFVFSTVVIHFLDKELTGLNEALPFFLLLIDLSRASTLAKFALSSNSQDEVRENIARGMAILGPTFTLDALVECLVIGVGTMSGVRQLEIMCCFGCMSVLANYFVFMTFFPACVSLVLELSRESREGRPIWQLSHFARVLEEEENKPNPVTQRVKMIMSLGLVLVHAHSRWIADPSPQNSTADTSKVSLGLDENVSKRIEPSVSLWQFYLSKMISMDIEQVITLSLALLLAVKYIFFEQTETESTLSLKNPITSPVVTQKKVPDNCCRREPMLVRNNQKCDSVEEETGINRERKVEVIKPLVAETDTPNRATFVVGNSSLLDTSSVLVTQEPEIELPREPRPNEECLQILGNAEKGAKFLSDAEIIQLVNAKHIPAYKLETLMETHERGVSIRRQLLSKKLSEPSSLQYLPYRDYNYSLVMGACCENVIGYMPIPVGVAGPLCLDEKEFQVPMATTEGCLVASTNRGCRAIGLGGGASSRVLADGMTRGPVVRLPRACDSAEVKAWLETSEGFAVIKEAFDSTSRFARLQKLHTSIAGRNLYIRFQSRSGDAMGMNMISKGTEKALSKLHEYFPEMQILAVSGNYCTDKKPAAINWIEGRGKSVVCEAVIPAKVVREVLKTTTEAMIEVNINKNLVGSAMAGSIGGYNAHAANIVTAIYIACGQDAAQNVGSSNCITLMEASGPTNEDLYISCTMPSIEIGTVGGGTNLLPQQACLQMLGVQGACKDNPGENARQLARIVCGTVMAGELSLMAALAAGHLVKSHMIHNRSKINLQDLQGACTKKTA
UniProt O95248: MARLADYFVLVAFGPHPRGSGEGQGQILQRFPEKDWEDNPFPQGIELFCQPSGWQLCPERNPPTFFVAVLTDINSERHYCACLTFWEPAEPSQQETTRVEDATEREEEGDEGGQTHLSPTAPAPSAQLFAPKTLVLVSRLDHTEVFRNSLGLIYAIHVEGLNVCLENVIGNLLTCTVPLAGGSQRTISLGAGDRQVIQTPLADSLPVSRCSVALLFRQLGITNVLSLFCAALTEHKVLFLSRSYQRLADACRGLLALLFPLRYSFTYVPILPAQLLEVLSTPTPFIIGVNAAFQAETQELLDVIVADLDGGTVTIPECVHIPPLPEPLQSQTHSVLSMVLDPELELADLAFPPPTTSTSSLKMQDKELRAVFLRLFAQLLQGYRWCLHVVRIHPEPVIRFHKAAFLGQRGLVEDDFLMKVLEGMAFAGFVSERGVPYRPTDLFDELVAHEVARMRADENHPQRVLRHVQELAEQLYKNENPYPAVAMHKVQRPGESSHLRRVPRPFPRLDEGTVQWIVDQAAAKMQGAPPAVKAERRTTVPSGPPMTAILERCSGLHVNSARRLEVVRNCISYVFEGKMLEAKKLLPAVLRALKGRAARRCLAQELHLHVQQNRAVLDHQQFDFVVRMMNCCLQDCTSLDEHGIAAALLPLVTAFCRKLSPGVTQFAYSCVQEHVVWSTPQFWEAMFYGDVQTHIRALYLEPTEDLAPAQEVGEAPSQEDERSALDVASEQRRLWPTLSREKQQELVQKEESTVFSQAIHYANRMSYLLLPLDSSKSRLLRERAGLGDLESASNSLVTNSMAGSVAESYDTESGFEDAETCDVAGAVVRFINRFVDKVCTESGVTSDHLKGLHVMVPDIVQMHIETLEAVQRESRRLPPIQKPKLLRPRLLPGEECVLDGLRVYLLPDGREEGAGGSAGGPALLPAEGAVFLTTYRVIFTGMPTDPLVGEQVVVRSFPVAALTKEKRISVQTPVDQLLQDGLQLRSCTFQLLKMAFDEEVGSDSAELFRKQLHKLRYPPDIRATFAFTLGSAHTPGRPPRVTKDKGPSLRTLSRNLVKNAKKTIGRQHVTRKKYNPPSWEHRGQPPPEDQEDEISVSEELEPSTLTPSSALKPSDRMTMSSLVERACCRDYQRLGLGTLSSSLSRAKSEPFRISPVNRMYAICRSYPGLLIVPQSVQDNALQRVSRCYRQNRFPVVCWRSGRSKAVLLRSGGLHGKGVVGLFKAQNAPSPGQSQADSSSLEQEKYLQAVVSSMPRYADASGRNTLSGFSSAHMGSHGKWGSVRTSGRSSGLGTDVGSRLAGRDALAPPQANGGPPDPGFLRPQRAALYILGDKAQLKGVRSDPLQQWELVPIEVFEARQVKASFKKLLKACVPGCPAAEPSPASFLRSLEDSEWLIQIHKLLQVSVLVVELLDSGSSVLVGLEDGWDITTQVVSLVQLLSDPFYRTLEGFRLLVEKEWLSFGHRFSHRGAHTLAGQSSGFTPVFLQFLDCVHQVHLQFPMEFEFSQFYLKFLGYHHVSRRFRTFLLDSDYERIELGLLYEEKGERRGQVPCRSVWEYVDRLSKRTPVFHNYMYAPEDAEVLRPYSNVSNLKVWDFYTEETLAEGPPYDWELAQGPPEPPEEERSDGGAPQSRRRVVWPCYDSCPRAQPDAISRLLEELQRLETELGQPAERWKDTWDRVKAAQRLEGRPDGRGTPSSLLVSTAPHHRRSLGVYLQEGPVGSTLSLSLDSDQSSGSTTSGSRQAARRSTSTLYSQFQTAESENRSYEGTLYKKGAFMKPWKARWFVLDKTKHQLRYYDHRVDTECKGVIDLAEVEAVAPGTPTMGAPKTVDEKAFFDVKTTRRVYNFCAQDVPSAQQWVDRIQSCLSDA
UniProt O95983: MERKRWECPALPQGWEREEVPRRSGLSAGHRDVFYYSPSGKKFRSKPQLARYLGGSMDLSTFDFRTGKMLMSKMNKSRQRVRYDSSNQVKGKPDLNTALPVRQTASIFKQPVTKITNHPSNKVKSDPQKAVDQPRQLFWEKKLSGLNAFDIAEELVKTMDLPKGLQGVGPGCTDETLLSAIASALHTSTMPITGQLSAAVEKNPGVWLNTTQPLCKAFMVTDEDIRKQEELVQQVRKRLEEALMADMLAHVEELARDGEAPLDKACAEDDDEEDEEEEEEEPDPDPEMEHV
UniProt P05386, whole entry: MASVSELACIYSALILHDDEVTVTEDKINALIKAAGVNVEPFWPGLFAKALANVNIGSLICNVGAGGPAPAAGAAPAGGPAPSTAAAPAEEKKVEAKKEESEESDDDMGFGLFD
UniProt O95070: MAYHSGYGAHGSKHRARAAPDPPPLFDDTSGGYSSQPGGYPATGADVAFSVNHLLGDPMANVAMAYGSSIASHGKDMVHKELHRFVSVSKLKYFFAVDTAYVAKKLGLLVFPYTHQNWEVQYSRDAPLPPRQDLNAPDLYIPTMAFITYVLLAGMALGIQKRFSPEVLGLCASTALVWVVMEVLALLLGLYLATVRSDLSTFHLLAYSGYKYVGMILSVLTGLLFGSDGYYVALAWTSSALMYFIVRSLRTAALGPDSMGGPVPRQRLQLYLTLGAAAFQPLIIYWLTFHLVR
UniProt O95563: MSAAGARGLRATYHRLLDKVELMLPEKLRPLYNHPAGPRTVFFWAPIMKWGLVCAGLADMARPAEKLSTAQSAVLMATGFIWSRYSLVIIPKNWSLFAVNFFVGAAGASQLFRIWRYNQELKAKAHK

Compound: CCc1cnccc1C(=O)Nc1cc2c(cc1F)NC(=O)CC2
Experiment: melting temperature shift (DMSO Tm minus MBE1-treated Tm) in cellular thermal proteome profiling; higher = less thermal stabilization by MBE1 (negative = stabilized by MBE1)
Conditions: A375

ENO1 (UniProt P06733) gave a melting temperature shift (MBE1 concentration: 100 nM) of -5.2 °C and a melting temperature shift (MBE1 concentration: 1 uM) of -2.65 °C.
In the case of NUDT3 (UniProt O95989), the melting temperature shift (MBE1 concentration: 100 nM) was -1.73 °C and the melting temperature shift (MBE1 concentration: 1 uM) was -2.44 °C.
In the case of UBE4B (UniProt O95155), the melting temperature shift (MBE1 concentration: 100 nM) was 0.543 °C and the melting temperature shift (MBE1 concentration: 1 uM) was 0.263 °C.
Work on NDUFB10 (UniProt O96000) yielded a melting temperature shift (MBE1 concentration: 100 nM) of -1.12 °C and a melting temperature shift (MBE1 concentration: 1 uM) of -0.724 °C.
With LTN1 (UniProt O94822) the melting temperature shift (MBE1 concentration: 100 nM) was 0.0988 °C and the melting temperature shift (MBE1 concentration: 1 uM) was -0.108 °C.
In the case of UniProt O75925, the melting temperature shift (MBE1 concentration: 100 nM) was -0.673 °C and the melting temperature shift (MBE1 concentration: 1 uM) was -0.461 °C.
In the case of MOCS3 (UniProt O95396), the melting temperature shift (MBE1 concentration: 100 nM) was 0.454 °C and the melting temperature shift (MBE1 concentration: 1 uM) was 0.2 °C.
Work on DDAH1 (UniProt O94760) yielded a melting temperature shift (MBE1 concentration: 100 nM) of -0.281 °C and a melting temperature shift (MBE1 concentration: 1 uM) of 0.177 °C.
Target ANXA1 (UniProt P04083) has a melting temperature shift (MBE1 concentration: 100 nM) of 0.0977 °C and a melting temperature shift (MBE1 concentration: 1 uM) of 0.0244 °C.
Target DDAH2 (UniProt O95865) has a melting temperature shift (MBE1 concentration: 100 nM) of -0.336 °C and a melting temperature shift (MBE1 concentration: 1 uM) of 0.121 °C.
With FARS2 (UniProt O95363) the melting temperature shift (MBE1 concentration: 100 nM) was 0.475 °C and the melting temperature shift (MBE1 concentration: 1 uM) was -0.409 °C.
PARN (UniProt O95453) gave a melting temperature shift (MBE1 concentration: 100 nM) of 0.0988 °C and a melting temperature shift (MBE1 concentration: 1 uM) of -0.499 °C.
With UniProt P04035 the melting temperature shift (MBE1 concentration: 100 nM) was -2.16 °C and the melting temperature shift (MBE1 concentration: 1 uM) was 0.568 °C.
GBA (UniProt P04062) showed a melting temperature shift (MBE1 concentration: 100 nM) of -0.154 °C and a melting temperature shift (MBE1 concentration: 1 uM) of -0.178 °C.
ALDOA (UniProt P04075) showed a melting temperature shift (MBE1 concentration: 100 nM) of -2.35 °C and a melting temperature shift (MBE1 concentration: 1 uM) of -1.25 °C.
Target SBF1 (UniProt O95248) has a melting temperature shift (MBE1 concentration: 100 nM) of 0.342 °C and a melting temperature shift (MBE1 concentration: 1 uM) of -0.58 °C.
MBD3 (UniProt O95983) showed a melting temperature shift (MBE1 concentration: 100 nM) of -0.943 °C and a melting temperature shift (MBE1 concentration: 1 uM) of -0.128 °C.
In the case of RPLP1 (UniProt P05386), the melting temperature shift (MBE1 concentration: 100 nM) was 0.385 °C and the melting temperature shift (MBE1 concentration: 1 uM) was -0.537 °C.
Target UniProt O95070 has a melting temperature shift (MBE1 concentration: 100 nM) of -0.584 °C and a melting temperature shift (MBE1 concentration: 1 uM) of -1.75 °C.
Work on LETM1 (UniProt O95202) yielded a melting temperature shift (MBE1 concentration: 100 nM) of -0.765 °C and a melting temperature shift (MBE1 concentration: 1 uM) of 0.393 °C.
MPC2 (UniProt O95563) showed a melting temperature shift (MBE1 concentration: 100 nM) of -2.1 °C and a melting temperature shift (MBE1 concentration: 1 uM) of 0.00611 °C.
DXO (UniProt O77932) gave a melting temperature shift (MBE1 concentration: 100 nM) of -0.177 °C and a melting temperature shift (MBE1 concentration: 1 uM) of 1.5 °C.
UniProt P04233 showed a melting temperature shift (MBE1 concentration: 100 nM) of -1.45 °C and a melting temperature shift (MBE1 concentration: 1 uM) of 1.42 °C.
Target SEC24B (UniProt O95487) has a melting temperature shift (MBE1 concentration: 100 nM) of -0.488 °C and a melting temperature shift (MBE1 concentration: 1 uM) of -0.443 °C.
For SCAF4 (UniProt O95104), the melting temperature shift (MBE1 concentration: 100 nM) was -0.671 °C and the melting temperature shift (MBE1 concentration: 1 uM) was -0.423 °C.
